1 molecule from patent US20250312451A1 can be followed below.

The chains behind the UniProt entries cited, without tags or fusion partners. Residues count along the entry.
UniProt P20138, residues 18-259: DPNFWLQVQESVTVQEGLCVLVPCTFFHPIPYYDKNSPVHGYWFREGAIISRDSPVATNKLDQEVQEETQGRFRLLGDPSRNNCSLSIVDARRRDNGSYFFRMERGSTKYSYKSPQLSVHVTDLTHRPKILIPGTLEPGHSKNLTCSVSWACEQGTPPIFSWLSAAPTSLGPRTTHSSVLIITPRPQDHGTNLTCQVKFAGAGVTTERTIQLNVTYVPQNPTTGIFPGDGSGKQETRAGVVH

Results are given in words; binding and its absence hold for the method and conditions named. Some entries that bind do so weakly or less than the wild type. For some assays here: Where a sequence is shown, tags or fusion partners need not be part of it.

Assay [1] addresses recombinant CD33-Fc fusion (UniProt P20138). The assay is described as follows: flow cytometry; transduced T cells stained with recombinant CD33-Fc fusion. For orientation: A flow cytometer gives signals particle by particle.
Assay [2] deals with T1, recombinant CLL1-Fc fusion (UniProt Q5QGZ9).
T1 sequence (looked up): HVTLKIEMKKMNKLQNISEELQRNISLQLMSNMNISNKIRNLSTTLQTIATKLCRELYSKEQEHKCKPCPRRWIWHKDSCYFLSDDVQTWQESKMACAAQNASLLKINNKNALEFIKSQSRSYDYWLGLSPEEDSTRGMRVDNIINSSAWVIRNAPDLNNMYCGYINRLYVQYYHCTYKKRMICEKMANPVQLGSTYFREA
The assay is described as follows: flow cytometry; transduced T cells stained with recombinant CLL1-Fc fusion.

B1: SR006 targeting component (antiCLL1.G4S.FRB.2xG4S.antiCD33.minCD4hinge.CD4tm.CD4ic), on transduced T cells (receptor)
chain: EVQLVESGGGEVQPGGSLRLSCAASGFLFSIYDMNWYRQAPGKEREWVAGITNNGYSTAYAESVKGRFTISRDNAKNTIYLQMSSLRAEDTAVYYCHADLTKAYDVEYAWGQGTLVTVKPGGGGSLWHEMWHEGLEEASRLYFGERNVKGMFEVLEPLHAMMERGPQTLKETSFNQAYGRDLMEAQEWCRKYMKSGNVKDLTQAWDLYYHVFRRISKGGGGSGGGGSEVQLVESGGGEVQPGGSLRLSCAASRSSGIDVMGWYRQAPGKERELVAEISGVGDTNYAASLADRFTVSRDNAKNTVYLQMSSLRAEDTAVYYCNAHSFLDLVGAWGQGTLVTVKPSNIKVLPTWSTPVQPMALIVLGGVAGLLLFIGLGIFFCVRCRHRRRQ
Regarding B1, the binding entry in assay [1] and in assay [2] was “binds” each time.
